The whole screen tested about 350,000 compounds, of which about 220 (0.063%) were called active. The shares of active, inactive and inconclusive entries below differ from those in the screen. Calls come from the whole dose curve; as a rule, active = well fitted activation curve with a large enough effect; inconclusive = small, poorly fitted or top-dose-only effect; inactive = no such curve, though single readings can be large or run the other way. Where the call is inconclusive, the potency comes from a doubtful curve fit.
Experiment: qHTS for Activators of Integrin-Mediated Alleviation for Muscular Dystrophy; note: nearly all actives have a fitted effect of over 60% in size;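 for activation: 100% = response of the positive control SU9516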
Conditions: alpha7betagal myoblasts, beta-gal FDG fluorescence, 48 h; activation: at 38.3 µM (top of the series)
Procedure, shortened: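 Alpha7betagal+/- myoblasts (passage 13) were plated 16-24 hr, then exposed to compounds (1:260 dilution of DMSO stock) for 48 hours at 37C. After MPER lysis, β-galactosidase reporter activity was read as FDG fluorescence (ex 480/em 540) after 30 minutes.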
Potency is the fitted concentration of half-maximal effect.

SMILES | Potency | activation
N#Cc1nc(-c2ccc(F)cc2)oc1NCc1ccco1 | inconclusive: 5.01 µM [activator, single point] | –
COc1ccc(C(=O)Nn2c(SCC(=O)c3ccccc3)nc3ccccc3c2=O)cc1 | inactive | –
CCC(C)NC(=O)C1(O)c2ccccc2NC(=O)N1c1ccc(C)c(C)c1 (centres undefined) | inconclusive: 4.47 µM [activator, single point] | –
Cc1cc(C)c2nc(-c3cccnc3)cc(C(=O)Nc3ccc(S(=O)(=O)Nc4onc(C)c4C)cc3)c2c1 | inconclusive: 2.24 µM [activator, partial curve, poor fit] | –
CCC1C=C(c2ccccc2)C=CN=C1N(CC)CC (centres undefined) | inconclusive: 10 µM [activator, single point] | –
CC(C)(C)OC(=O)N1CCCC(C(=O)Nc2cccc(C(=O)N3CCCCC3)c2)C1 (centres undefined) | inactive | –
Cc1ccc(C(=O)NNc2ncnc3c2cnn3C)cc1 | inactive | –
O=C(CCCCC(=O)OCC1CCCO1)OCC1CCCO1 (centres undefined) | inactive | –
Cc1ccc(/C=C/c2ccc(=O)n(Cc3ccc(F)cc3)n2)cc1 | inactive | –
CCOC(=O)c1c(NC(=O)CSc2nnc(-c3cccnc3)o2)sc(C(C)=O)c1C | inactive | –
CC(C)(C)c1cc(NC(=O)COC(=O)c2nccnc2N)n(-c2ccccc2)n1 | inactive | –
O=C(c1ccc([N+](=O)[O-])cc1)N1CCSC1c1ccccc1Cl (centres undefined) | inconclusive: 10 µM [activator, single point] | –
C=CCC[C@@H](Cc1ccc(F)cc1)C(=O)O[C@H](CNC(=O)[C@@H](CC=C)CC(=O)N[C@H](CO)Cc1ccccc1)c1ccccc1 | inconclusive: 2.82 µM [activator, single point] | –
O=C(c1ccc(Cl)c(S(=O)(=O)Nc2ccccc2C(=O)N2CCc3ccccc3C2)c1)N1CCc2ccccc2C1 | inconclusive: 22.4 µM [activator, single point] | –
Cc1ccc(NC(=S)NC(=O)c2ccc(F)cc2)cc1S(=O)(=O)Nc1ccccc1Cl | inactive | –
C=CCOc1ccc(/C=N/O)cc1Cl | inconclusive: 28.2 µM [activator, single point] | –
CC(C)CCN1C(=O)c2ccc(C(=O)Nc3ccccn3)cc2C1=O | inactive | –
Fc1ccc(OCCCCCCN2CCCC2)cc1 | inactive | –
CCOC(=O)CSc1nc2ccccc2c(=O)n1Cc1ccco1 | – | inconclusive: -8.6% [activator]
CS(=O)(=O)c1ccc(Cl)c(NC(=O)CSc2nnc3n2CCCCC3)c1 | inactive | –
O=C(C1CCCN1C(=O)c1cccs1)N1CCN(S(=O)(=O)c2ccc(F)cc2)CC1 (centres undefined) | inconclusive: 28.2 µM [activator, single point] | –
Cc1cc(C)c(C)c(C(=O)COC(=O)CNC(=O)CNC(=O)c2ccco2)c1C | inconclusive: 3.16 µM [activator, partial curve, poor fit] | –
CSCC[C@H](NC(=O)[C@@H]1CSC2c3ccccc3C(=O)N21)C(=O)NC1CCCC1 (some centres undefined) | inconclusive: 5.01 µM [activator, single point] | –

SMILES | Potency | activation
O=C(CN1CCN(c2ccccc2O)CC1)NC(c1ccccc1)c1ccccc1 | inactive | –
COc1ccc(CNC(=O)CCN2C(=O)c3ccccc3C2=O)cc1 | inconclusive: 3.55 µM [activator, partial curve] | –
COCCNC(=O)C(c1ccc(C)cc1)N(CCOC)C(=O)CCC(=O)Nc1ccccn1 (centres undefined) | inconclusive: 2.24 µM [activator, full curve, poor fit] | –
COC(=O)C(Cc1ccc(O)cc1)N1Cc2ccccc2C1=O (centres undefined) | inconclusive: 5.01 µM [activator, single point] | –
COc1ccc(C(=O)Nc2ccccc2C(=O)N/N=C/c2ccncc2)cc1OC | inconclusive: 14.1 µM [activator, partial curve, poor fit] | –
Cc1ccccc1NC(=O)c1nn(-c2ccc(F)c(F)c2)ccc1=O | inconclusive: 5.01 µM [activator, single point] | –
COc1ccc(NC(=O)CCC(=O)N2CCOCC2)c([N+](=O)[O-])c1 | inconclusive: 5.01 µM [activator, single point] | –
O=[N+]([O-])c1cccc(Cl)c1NCCNS(=O)(=O)c1ccc(Cl)cc1 | inactive | –
O=C(NCC1CCCCC1)c1ccc([N+](=O)[O-])cc1 | inconclusive: 5.62 µM [activator, full curve, poor fit] | –
CCCC(=O)OC/C(O)=C(\C#N)c1nc2ccccc2[nH]1 | inactive | –
N#CC(C(=O)C12CC3CC(CC(C3)C1)C2)c1nc2ccccc2[nH]1 (centres undefined) | inactive | –
COc1ccc(NC(=O)c2ccccc2SC)c(OC)c1 | inconclusive: 0.794 µM [activator, single point] | –
Cc1cccc(CN2CCN(c3ncccn3)CC2)c1 | inconclusive: 5.01 µM [activator, single point] | –
O=C(Nc1ccc(NC(=O)c2ccccc2F)cc1)c1cccs1 | inconclusive: 5.01 µM [activator, single point] | –
C[C@@H]1CN(C2CCN(Cc3nc(C(c4ccccc4)c4ccccc4)no3)CC2)C[C@H](C)O1 | inconclusive: 3.98 µM [activator, single point] | –
Nc1ccc(-c2ccc(N)c([N+](=O)[O-])c2)cc1[N+](=O)[O-] | inconclusive: 11.2 µM [activator, single point] | –
CS(=O)(=O)c1ccccc1C(=O)Nc1ccccc1Cc1ccccc1 | inconclusive: 3.55 µM [activator, single point] | –
COc1ccc2c(c1)c1ncn(Cc3ccco3)c(=O)c1n2C | inactive | –
O=C(NCCCN1CCCC1=O)Nc1ccc(Cl)cc1Cl | inconclusive: 5.01 µM [activator, single point] | –
Cc1ccccc1C(=O)c1cccn1CC(=O)NCCCN1CCCCC1 | inconclusive: 5.01 µM [activator, single point] | –
S=c1[nH]nc(C2CCCCC2)n1/N=C/c1ccc(Br)cc1 | inactive | –
N#Cc1nc(Cc2ccccc2)oc1N1CCN(c2ccccc2)CC1 | inconclusive: 7.94 µM [activator, partial curve, poor fit] | –
CCC(=O)Nc1cc2c3c(c1)CCN3C(=O)CC2 | inactive | –

SMILES | Potency | activation
CCOc1ccc2[nH]c(=O)c(CN(Cc3ccccc3OC)C(=O)c3ccccc3)cc2c1 | – | inactive: -25.7% [at 7.66 µM]
O=[N+]([O-])c1ccc(/C=C/c2ccc3cccc(O)c3n2)cc1 | inactive | –
Brc1ccc(-c2noc(-c3ccccn3)n2)o1 | inconclusive: 5.01 µM [activator, single point] | –
C#CC(C)(CC)NC(=O)c1cc2nc(C3CC3)cc(C(F)(F)F)n2n1 (centres undefined) | inconclusive: 3.55 µM [activator, single point] | –
O=C(Nc1ccccc1Cc1ccccc1)c1ccncc1 | inconclusive: 12.6 µM [activator, single point] | –
COc1cccc2[nH]c(C(=O)NCCc3ccccc3)cc12 | inconclusive: 8.91 µM [activator, single point] | –
O=C(CNC1CCCCCC1)Nc1ccccc1N1CCOCC1 | inconclusive: 3.16 µM [activator, single point] | –
COc1ccc(C(=O)CC(=O)C(=O)Nc2ccccc2)cc1 | inconclusive: 28.2 µM [activator, single point] | –
COC(=O)C1=C(C)N(CCc2ccccc2)C(=O)C1(NS(=O)(=O)c1ccc(NC(C)=O)cc1)C(F)(F)F (centres undefined) | inconclusive: 5.01 µM [activator, single point] | –
C/C(=N\NC(=O)CCCNc1ccc(C)cc1)c1ccccn1 | inactive | –
COc1cc(OC)cc(C(=O)N[C@H](C(=O)NCCc2ccc(S(N)(=O)=O)cc2)C(C)C)c1 | inconclusive: 10 µM [activator, single point] | –
O=C1C(Cl)=C(N2CCC(C(=O)O)CC2)C(=O)c2ccccc21 | inconclusive: 28.2 µM [activator, single point] | –
O=C(CCS(=O)(=O)c1ccc2c(c1)NC(=O)CO2)NCCc1ccccc1 | inconclusive: 5.62 µM [activator, full curve, poor fit] | –
CC(C)C(OC(=O)CN1C(=O)c2ccccc2C1=O)C(=O)NC1CCCCC1 (centres undefined) | inconclusive: 5.01 µM [activator, full curve, poor fit] | –
COC(=O)c1c(C(=O)OC)c(-c2ccc(Cl)cc2)n2c1CS(=O)(=O)C2 | inconclusive: 3.16 µM [activator, single point] | –
COc1ccc(NC(=O)Nc2cccc3ccccc23)cc1OC | inconclusive: 1.26 µM [activator, full curve] | –
COC(=O)c1ccc(CSc2nc3c(c(=O)n2-c2ccc(C)cc2)SCC3)o1 | inconclusive: 20 µM [activator, single point] | –
COc1ccc(N(C(=O)CNC(=O)c2ccco2)C(C(=O)NC2CCCC2)c2ccco2)cc1 (centres undefined) | inconclusive: 4.47 µM [activator, single point] | –
Cc1ccc(S(=O)(=O)N(CCC(=O)O)c2ccccc2)cc1 | inconclusive: 11.2 µM [activator, partial curve, poor fit] | –
CCN(C(=O)COC(=O)c1ccc(Br)o1)C1CCCCC1 | inconclusive: 1.58 µM [activator, partial curve, poor fit] | –
Cc1cc(C)nc(SC2CC(=O)N(c3ccc(Cl)cc3)C2=O)n1 (centres undefined) | inconclusive: 4.47 µM [activator, partial curve, poor fit] | –
CCN1CCc2c(C#N)c(N3CCCCC3)nc(NCc3ccccc3)c2C1 | inactive | –
COc1ccc(C(=O)OCC(=O)NC(C)CCc2ccccc2)c(OC)c1 (centres undefined) | inconclusive: 28.2 µM [activator, single point] | –

Five of the compounds above, as a markdown table.

| SMILES | Potency | activation |
| --- | --- | --- |
| COC(=O)c1ccc(CSc2nc3c(c(=O)n2-c2ccc(C)cc2)SCC3)o1 | inconclusive: 20 µM [activator, single point] | – |
| COc1ccc(N(C(=O)CNC(=O)c2ccco2)C(C(=O)NC2CCCC2)c2ccco2)cc1 (centres undefined) | inconclusive: 4.47 µM [activator, single point] | – |
| Cc1ccc(S(=O)(=O)N(CCC(=O)O)c2ccccc2)cc1 | inconclusive: 11.2 µM [activator, partial curve, poor fit] | – |
| CCN(C(=O)COC(=O)c1ccc(Br)o1)C1CCCCC1 | inconclusive: 1.58 µM [activator, partial curve, poor fit] | – |
| Cc1cc(C)nc(SC2CC(=O)N(c3ccc(Cl)cc3)C2=O)n1 (centres undefined) | inconclusive: 4.47 µM [activator, partial curve, poor fit] | – |
